According to publication PMC6215009:
No constants are given. Whether binding was seen depends on the method and setting. In cells and extracts the contact can be indirect. A yes stands for co-enrichment or nearness to the bait. Other partners may have been found.

By UniProt entry, the sequences of proteins in these tests, tags left out.
UniProt P59598: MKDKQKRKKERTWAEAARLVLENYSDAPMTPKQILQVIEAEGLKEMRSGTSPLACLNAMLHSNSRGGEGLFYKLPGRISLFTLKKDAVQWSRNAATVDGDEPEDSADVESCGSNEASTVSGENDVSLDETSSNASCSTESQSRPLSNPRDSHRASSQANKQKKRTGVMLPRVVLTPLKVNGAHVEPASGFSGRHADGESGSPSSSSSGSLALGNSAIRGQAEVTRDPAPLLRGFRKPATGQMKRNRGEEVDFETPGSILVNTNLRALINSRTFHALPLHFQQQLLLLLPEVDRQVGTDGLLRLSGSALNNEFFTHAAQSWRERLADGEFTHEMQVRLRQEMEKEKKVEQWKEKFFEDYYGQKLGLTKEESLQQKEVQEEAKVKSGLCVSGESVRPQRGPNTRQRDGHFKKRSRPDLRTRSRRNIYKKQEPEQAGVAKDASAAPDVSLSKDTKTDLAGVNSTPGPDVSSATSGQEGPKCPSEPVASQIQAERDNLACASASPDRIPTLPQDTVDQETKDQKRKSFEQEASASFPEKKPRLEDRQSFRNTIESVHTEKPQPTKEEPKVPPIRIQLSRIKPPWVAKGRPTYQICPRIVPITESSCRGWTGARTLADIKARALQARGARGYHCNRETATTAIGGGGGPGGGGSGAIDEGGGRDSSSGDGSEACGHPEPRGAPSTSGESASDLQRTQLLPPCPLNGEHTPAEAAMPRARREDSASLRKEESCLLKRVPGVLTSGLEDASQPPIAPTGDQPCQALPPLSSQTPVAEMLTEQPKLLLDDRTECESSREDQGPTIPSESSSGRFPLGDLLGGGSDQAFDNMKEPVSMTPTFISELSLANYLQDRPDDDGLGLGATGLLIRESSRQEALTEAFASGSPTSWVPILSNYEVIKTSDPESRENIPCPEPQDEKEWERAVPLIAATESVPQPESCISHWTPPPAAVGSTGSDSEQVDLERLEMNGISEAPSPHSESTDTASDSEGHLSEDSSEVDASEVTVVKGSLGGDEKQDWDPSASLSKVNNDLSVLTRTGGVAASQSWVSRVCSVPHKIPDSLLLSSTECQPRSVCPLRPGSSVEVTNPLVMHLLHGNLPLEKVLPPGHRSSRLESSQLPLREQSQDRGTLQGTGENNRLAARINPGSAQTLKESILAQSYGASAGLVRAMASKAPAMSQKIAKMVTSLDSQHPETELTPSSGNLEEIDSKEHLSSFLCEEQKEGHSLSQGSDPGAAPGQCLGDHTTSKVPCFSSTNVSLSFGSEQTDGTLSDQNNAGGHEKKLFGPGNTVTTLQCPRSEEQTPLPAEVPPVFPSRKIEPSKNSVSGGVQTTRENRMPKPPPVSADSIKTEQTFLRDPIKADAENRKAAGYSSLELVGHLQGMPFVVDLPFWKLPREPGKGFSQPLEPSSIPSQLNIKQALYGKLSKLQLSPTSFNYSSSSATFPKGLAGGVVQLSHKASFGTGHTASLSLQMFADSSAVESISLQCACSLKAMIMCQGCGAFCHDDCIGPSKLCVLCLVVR
UniProt P45973: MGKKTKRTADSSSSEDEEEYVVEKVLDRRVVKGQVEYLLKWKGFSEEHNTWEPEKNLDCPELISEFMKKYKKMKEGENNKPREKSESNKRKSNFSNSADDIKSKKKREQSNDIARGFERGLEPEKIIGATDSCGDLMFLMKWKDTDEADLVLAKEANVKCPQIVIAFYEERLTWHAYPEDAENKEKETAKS

B1: OGT, endogenous human (protein, UniProt O15294 1-1046)
chain: MASSVGNVADSTEPTKRMLSFQGLAELAHREYQAGDFEAAERHCMQLWRQEPDNTGVLLLLSSIHFQCRRLDRSAHFSTLAIKQNPLLAEAYSNLGNVYKERGQLQEAIEHYRHALRLKPDFIDGYINLAAALVAAGDMEGAVQAYVSALQYNPDLYCVRSDLGNLLKALGRLEEAKACYLKAIETQPNFAVAWSNLGCVFNAQGEIWLAIHHFEKAVTLDPNFLDAYINLGNVLKEARIFDRAVAAYLRALSLSPNHAVVHGNLACVYYEQGLIDLAIDTYRRAIELQPHFPDAYCNLANALKEKGSVAEAEDCYNTALRLCPTHADSLNNLANIKREQGNIEEAVRLYRKALEVFPEFAAAHSNLASVLQQQGKLQEALMHYKEAIRISPTFADAYSNMGNTLKEMQDVQGALQCYTRAIQINPAFADAHSNLASIHKDSGNIPEAIASYRTALKLKPDFPDAYCNLAHCLQIVCDWTDYDERMKKLVSIVADQLEKNRLPSVHPHHSMLYPLSHGFRKAIAERHGNLCLDKINVLHKPPYEHPKDLKLSDGRLRVGYVSSDFGNHPTSHLMQSIPGMHNPDKFEVFCYALSPDDGTNFRVKVMAEANHFIDLSQIPCNGKAADRIHQDGIHILVNMNGYTKGARNELFALRPAPIQAMWLGYPGTSGALFMDYIITDQETSPAEVAEQYSEKLAYMPHTFFIGDHANMFPHLKKKAVIDFKSNGHIYDNRIVLNGIDLKAFLDSLPDVKIVKMKCPDGGDNADSSNTALNMPVIPMNTIAEAVIEMINRGQIQITINGFSISNGLATTQINNKAATGEEVPRTIIVTTRSQYGLPEDAIVYCNFNQLYKIDPSTLQMWANILKRVPNSVLWLLRFPAVGEPNIQQYAQNMGLPQNRIIFSPVAPKEEHVRRGQLADVCLDTPLCNGHTTGMDVLWAGTPMVTMPGETLASRVAASQLTCLGCLELIAKNRQEYEDIAVKLGTDLEYLKKVRGKVWKQRISSPLFNTKQYTMELERLYLQMWEHYAAGNKPDHMIKPVEVTESA

Biological target: Flag-tagged murine Asxl1 (stably expressed in HEK293 cells) (mouse) (UniProt P59598)
Test: affinity purification with mass spectrometry; IP with anti-Flag antibody-coupled beads from HEK293 cells stably expressing Flag-tagged murine Asxl1; SDS-PAGE, Coomassie Blue, LC-MS/MS

| Molecule | binding |
| --- | --- |
| CBX5, endogenous human (from UniProt P45973 1-191) | binds |
| B1 | binds |
